The results in this text go back to PMC8588432.

By UniProt entry, the sequences of proteins in these tests, tags left out. Residues count along the entry.
UniProt P08670, 2-466: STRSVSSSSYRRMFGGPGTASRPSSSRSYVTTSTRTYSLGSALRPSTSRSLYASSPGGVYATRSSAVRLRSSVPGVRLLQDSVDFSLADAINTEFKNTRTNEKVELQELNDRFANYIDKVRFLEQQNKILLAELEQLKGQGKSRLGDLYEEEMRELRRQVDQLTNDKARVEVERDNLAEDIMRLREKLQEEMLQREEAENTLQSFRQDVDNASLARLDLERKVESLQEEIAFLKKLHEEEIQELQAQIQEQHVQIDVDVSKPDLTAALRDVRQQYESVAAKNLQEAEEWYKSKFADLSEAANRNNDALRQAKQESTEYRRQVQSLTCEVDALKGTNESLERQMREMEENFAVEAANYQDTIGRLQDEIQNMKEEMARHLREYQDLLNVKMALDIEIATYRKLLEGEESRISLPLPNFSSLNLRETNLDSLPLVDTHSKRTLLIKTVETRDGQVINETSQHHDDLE

The exact form of at least one protein or probe is not confirmed. At least one result comes from cells or an extract, where the contact may be indirect. Weaker means in comparison with the reference protein, sequence or condition of that experiment. For some assays here: At least one verdict was read from the data and is not stated in words by the source.

Data set [1] has as its target vimentin on/in IGROV cells (UniProt P08670). Put plainly: flow cytometry. The conditions noted are these: fixed IGROV cells, 22 C, 1 h, protein on the cell surface, label: 5'-biotin, synthetic backbone.
Data set [2] shares this target. The data set can be described thus: flow cytometry and fluorescence microscopy. The conditions noted are these: fixed IGROV cells, monothioated phosphates 3' of adenines (shown in red, positions not in text), 22 C, 1 h, protein on the cell surface, synthetic backbone.
[3] abbreviates: lower than V5M2, monothioated phosphates 3' of adenines.
Where [4] appears, read: lower than V3M2, monothioated phosphates 3' of adenines.

On to “AGCTTCGCATAGACCCAGCTGGTCCGGAAAATAAGAT [V5M3]”, for which, in data set [1] (setting [3]), the binding result is “binds more weakly”.
Take CGGATCGATAAGCTTCGATCAT [V3M4]: in data set [1] (setting [4]), the binding result is recorded as “binds more weakly”.
Same read-out and setting: the value for CAAGAACATCCCTGTCACGGATCCTCTAG [V3M3] was “binds more weakly”.
As to AAGCTTCGCATAGACCCAGCTGGTCCG [V5M1], the binding result in data set [1] (setting [3]) is reported as “binds more weakly”.
Take “CCCACTTATCGTCCCTTAATGAGTTTACTCGCACACCGGA [Scrambled control (40 mer)]”: in data set [2] (minimal fluorescence, non-specific and low binding, label: biotin), the binding result is reported as “binds more weakly”.
On to CGGATCGATAAGCTTCGATCATCGATCAC [V3M1], for which the binding result in data set [1] (setting [4]) is reported as “binds more weakly”.
Take “TAGACCCAGCTGGTCCGGAAAATAAGATGTCACGGATCCTC [V5M2]”: the binding result in data set [2] (label: 5'-biotin) is listed as “binds”.
The same measure, in the same setting: the value for “ACCTCTTCAAGAACATCCCTGTCACGGATCCTCTAGAGCA [V3M2]” was “binds”.
